Where “and” joins values, the source holds several entries; their conditions need not be identical. Equal entries are not always repeated. The list shows a part of the results. The main result of the screen is listed elsewhere. These columns were measured beside it and carry no call. Most of these compounds were active or inconclusive in the main read-out, so they are no random draw. Words in brackets tell the shape of the fitted curve; partial curves, single points and poor fits give uncertain potencies.
Assay: qHTS Assay for Lipid Storage Modulators in Drosophila S3 Cells;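 on cell number change: cells counted by Cell Tracker Red CMTPX staining in the red channel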
Conditions: BODIPY lipid droplet fluorescence, 18-24 h; for cell number change: measured here: cell count max response, cells fed with added oleic acid
Summary of the method: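 Laser-scanning cytometry quantifies lipid droplet accumulation (500–530 nm total intensity; droplet/cell object ratio) in oleic acid-fed (400 uM added) Drosophila S3 cells treated with a concentration series. 20 uM Triacsin C defined 100% inhibition.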

[1] = measured here: cell number channel AC50, cells fed with added oleic acid
[2] = measured here: lipid fluorescence (Fed channel) AC50, cells fed with added oleic acid

Row | Structure (SMILES) | cell number change | AC50 [1] | AC50 [2]
1 | N#CC1=C(S)N(c2ccccc2)C2(CCCCC2)NC1=O | 78.7% | 20.6 µM [rising, partial curve] | 25.9 µM [falling, partial curve, poor fit]
2 | CCCCC(C)n1[nH]c(=O)cc1N (centres undefined) |  |  | 0.651 µM [falling, partial curve]
3 | O=Cc1cn[nH]c1-c1ccccc1 | 20% |  | 23.1 µM [rising, single point]
4 | CCCCCCCN1CCC(=O)N([C@H](CO)CC(C)C)CC1 | 30.5% | 3.66 µM [rising, partial curve, poor fit] | 
5 | CCN1CCN(S(=O)(=O)c2ccc(OC)cc2)CC1 | -0.829% |  | 
6 | O=C(CCC(=O)OCC(=O)c1ccc(Br)cc1)Nc1cccc2cccnc12 |  |  | 3.66 µM [falling, single point]
7 | COc1cc(/C=C2\CCC(C3CCCC3)C2=O)cc(OC)c1OC (centres undefined) | 14.3% |  | 20.6 µM [falling, partial curve, poor fit]
8 | CN(C)c1nc(N)nc(CSc2nnnn2-c2ccccc2)n1 | 16.9% | 0.13 µM [rising, full curve, poor fit] | 
9 | Cc1cc(C)n2nc(S(=O)(=O)N(C)Cc3ccccc3)nc2n1 | 66.6% |  | 
10 | CCn1c(CNC(=O)c2cccc(C)c2)nc2ccccc21 |  |  | 0.82 µM [rising, single point]
11 | COc1ccc(C)cc1NC(=O)CSc1ccc(Cl)cc1 | 35.2% | 8.2 µM [rising, partial curve] | 2.59 µM [rising, full curve, poor fit]
12 | CCCc1ccc(-c2cc(C(=O)N3CCN(c4ccccn4)CC3)c3ccccc3n2)cc1 | 14.2% | 3.66 µM [rising, partial curve] | 
13 | CCCCCn1c(=N)n(CC(O)COc2ccccc2OC)c2ccccc21 (centres undefined) | -2.06% and -25.2% |  | 2.31 µM [rising, partial curve] and 7.31 µM [falling, partial curve]
14 | c1ccc2c(c1)ncn2Cc1nnc2sc(-c3ccncc3)nn12 | 65.9% | 14.6 µM [rising, partial curve] | 29.1 µM [rising, single point]
15 | O=C(NNC(=O)C1CC(c2cccs2)=NO1)Nc1ccccc1 (centres undefined) | -32% | 35.5 µM [falling, single point] | 
16 | CC1CCN(C(=O)Cn2c3ccc(F)cc3c3nc4n(c(=O)c32)CCCS4)CC1 | 20.1% |  | 0.0651 µM [falling, partial curve, poor fit]
17 | COc1ccc(CN(C)C(C)C(=O)Nc2ccc(S(=O)(=O)N3CCOCC3)cc2)c(OC)c1 (centres undefined) | -17.9% | 6.51 µM [falling, single point] | 6.51 µM [falling, single point]
18 | COc1ccc(N2Cc3cccc(C(=O)NC(C)CCc4ccco4)c3C2=O)cc1 (centres undefined) | -0.253% |  | 1.16 µM [rising, single point]
19 | O=C(c1ccc(Cl)c(S(=O)(=O)NCc2cccnc2)c1)N1CCCC1 | -6.62% |  | 
20 | CCCCNC(=O)Nc1nnc(C(C)(C)C)s1 | -19.4% |  | 

Row | Structure (SMILES) | cell number change | AC50 [1] | AC50 [2]
21 | CCOC(=O)c1oc2ccccc2c1NC(=O)c1ccc(Cl)s1 |  | 0.461 µM [rising, single point] | 1.03 µM [rising, full curve]
22 | CN(Cc1ccc(C(F)(F)F)cc1)C(=O)C1CCC(=O)N(C2CC2)C1 (centres undefined) | 4.62% |  | 29.1 µM [rising, single point]
23 | COc1ccc(N(C)S(=O)(=O)c2ccc3c(c2)CCC(=O)N3)cc1 | -2.23% |  | 
24 | CC1CCCN(C(=O)c2nn(C)c3c2CSc2ccccc2-3)C1 (centres undefined) | -8.36% |  | 0.731 µM [rising, full curve]
25 | Cc1ccc(Cn2nc(C)c(NC(=O)c3cc(-c4ccco4)on3)c2C)cc1 | -11.5% |  | 
26 | O=C(Cn1ccc2ccccc2c1=O)NCCC(=O)Nc1cccnc1 | 18.9% |  | 29.1 µM [rising, single point]
27 | O=C(OCCCc1cc2ccccc2c(=O)o1)c1ccc(C(F)(F)F)cc1 | -1.02% |  | 0.13 µM [rising, full curve]
28 | CCc1cc(=O)oc2cc(OCC(=O)N(CC)CC)c(Cl)cc12 | 20.9% |  | 0.00411 µM [rising, full curve, poor fit]
29 | O=C(CSc1nnc(-c2ccccc2O)o1)N1CCOCC1 | 8.87% |  | 
30 | O=C(CSc1ccc(Cl)cc1)Nc1cccc(NC(=O)c2ccco2)c1 | 2.99% | 6.51 µM [rising, single point] | 
31 | COC(=O)c1[nH]c2ccc(C)cc2c1NC(=O)Nc1ccccc1OC | -0.711% |  | 0.326 µM [rising, full curve, poor fit]
32 | CC(C)(C)N(CC#CCC(O)(c1ccccc1)C1CCCC1)CCO (centres undefined) | 7.64% |  | 
33 | O=C(CCC(=O)c1ccc(-c2ccccc2)cc1)Nc1cccnc1 | 31% | 5.17 µM [rising, partial curve, poor fit] | 
34 | CCOC(=O)c1cc(C(=O)OCC)c2cccc(C)n2c1=O | -12.7% |  | 0.184 µM [falling, full curve, poor fit]
35 | CCc1nc(Nc2ccc3c(c2)OCO3)c2oc3ccccc3c2n1 | -20.9% |  | 23.1 µM [falling, single point]
36 | COc1ccc(OCCC(=O)OCC(=O)Nc2cccc(S(=O)(=O)N3CCOCC3)c2)cc1 | -23.2% | 0.13 µM [falling, full curve, poor fit] | 0.13 µM [falling, full curve, poor fit]
37 | COc1ccc(CCNC(=O)CCC(=O)c2cccs2)cc1OC | -20.7% | 3.26 µM [falling, single point] | 3.26 µM [falling, partial curve]
38 | N#Cc1nc(COc2ccc(Br)cc2)oc1NCCCn1ccnc1 |  | 0.411 µM [rising, partial curve, poor fit] | 
39 | CCCCn1c(SCc2cc(=O)n3ccsc3n2)nc2cc(C(=O)OC)ccc2c1=O | -3.88% |  | 6.51 µM [rising, single point]
40 | Cn1c(Oc2ccc(F)cc2)c(C=O)c2ccccc21 | 20.9% |  | 0.0517 µM [falling, full curve, poor fit]

Reprinted at random: 3 records from the list
Row | Structure (SMILES) | cell number change | AC50 [1] | AC50 [2]
38 | N#Cc1nc(COc2ccc(Br)cc2)oc1NCCCn1ccnc1 |  | 0.411 µM [rising, partial curve, poor fit] | 
19 | O=C(c1ccc(Cl)c(S(=O)(=O)NCc2cccnc2)c1)N1CCCC1 | -6.62% |  | 
31 | COC(=O)c1[nH]c2ccc(C)cc2c1NC(=O)Nc1ccccc1OC | -0.711% |  | 0.326 µM [rising, full curve, poor fit]
